Assay results as given in paper PMC13001094, “Cargo Recognition of Nesprin‑2 by the Dynein Adapter Bicaudal D2 for a Nuclear Positioning Pathway That Is Important for Brain Development” (Biochemistry, 2026).
Results are given in words; binding and its absence hold for the method and conditions named. Where a sequence is shown, tags or fusion partners need not be part of it.

Amino acid sequences for entries named in this document (tags omitted). A change or cut given only in a name is not applied to a line headed by its entry. Chains listed by the source or under a name are the forms on record and can include a tag or linker.
GST-tagged Nesprin-2 (aa 6123–6421) triple mutant V6246A/L6253A/F6261A (Q6ZWQ0, form named): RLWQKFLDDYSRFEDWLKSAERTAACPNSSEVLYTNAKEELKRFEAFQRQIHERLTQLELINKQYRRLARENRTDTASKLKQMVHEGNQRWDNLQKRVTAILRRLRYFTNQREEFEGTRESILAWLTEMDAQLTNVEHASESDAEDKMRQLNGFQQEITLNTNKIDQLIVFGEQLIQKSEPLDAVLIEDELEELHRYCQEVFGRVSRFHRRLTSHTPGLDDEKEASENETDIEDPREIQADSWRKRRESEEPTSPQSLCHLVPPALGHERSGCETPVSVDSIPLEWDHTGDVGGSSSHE

Target: GST-tagged Nesprin-2 (aa 6123–6421) triple mutant V6246A/L6253A/F6261A (mouse) (UniProt Q6ZWQ0)
Test: pull-down; GST-tagged Nesprin-1/2 fragment held on glutathione column (not eluted), incubated 30 min with Ni-NTA-purified His6-BicD2-CTD diluted to 125 mM NaCl; washed twice; eluted with 10 mM glutathione, 50 mM Tris pH 8.0, 150 mM NaCl, 1 mM DTT; SDS-PAGE, Coomassie; band ratio normalised to WT = …; both purified

- binding: no binding
B1: His6-tagged human BicD2-CTD (aa 715–804) (domain or fragment, UniProt Q8TD16-2 715-804, looked up)
chain: YENEKAMVTETMMKLRNELKALKEDAATFSSLRAMFATRCDEYITQLDEMQRQLAAAEDEKKTLNSLLRMAIQQKLALTQRLELLELDHE
notes: pET28a vector; source: E. coli LOBSTR BL21(DE3)-RIL, purified (Ni-NTA); not shown: His6, N-terminal, kept
